{"source": "PubChem BioAssay AID652243 (Drosophila RNAi Screening Center, 2013)", "assay": "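Fly regulators of androgen-dependent reporter output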 (primary screen)", "system": "Drosophila S2R+ cells", "reagent": "long dsRNA against Drosophila genes", "timing": "72 h (48 h, then 24 h hormone)", "treatment": "synthetic androgen R1881 at 10 nM for 24 h", "measurement": "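Per-well raw luminescence of the androgen-driven firefly reporter and of the Renilla control, two replicates each, without normalisation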", "scale": "firefly reporter light: higher = more light from androgen-responsive reporter; Renilla control light: higher = more constitutive control signal (cell number, transfection)", "active means": "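Hit when the log firefly-to-Renilla ratio dropped or increased by a fixed fold versus the mean of GFP or LacZ controls across duplicate plates; lowering cut given as 1.5 and as 3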", "calls": "active = hit: reporter lowered or raised; inactive = no hit", "note": "The deposit covers about 24,000 reagents; this is an unselected part of those that have a named target and a result. In the full data, 246 (1%) are marked active. 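Plates not normalised; calls are printed but the firefly/Renilla ratio behind them is not deposited; fold cut for lowering reported inconsistently.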 Raw values are not corrected between plates. A number with no mark means an inactive call. Not stated in the record: the amount of reagent."}
{"Gene": "Cyp28d1 (GeneID 33749)", "dsRNA": "DRSC03298", "firefly reporter light, replicate 1": 7.94e5, "firefly reporter light, replicate 2": 8.13e5, "Renilla control light, replicate 1": 3.01e6, "Renilla control light, replicate 2": 2.98e6}
{"Gene": "Cyp28d1 (GeneID 33749)", "dsRNA": "DRSC21331", "firefly reporter light, replicate 1": 7.81e5, "firefly reporter light, replicate 2": 7.93e5, "Renilla control light, replicate 1": 2.98e6, "Renilla control light, replicate 2": 2.73e6}
{"Gene": "Cyp28d1 (GeneID 33749)", "dsRNA": "DRSC28292", "firefly reporter light, replicate 1": 4.29e5, "firefly reporter light, replicate 2": 6.85e5, "Renilla control light, replicate 1": 1.40e6, "Renilla control light, replicate 2": 1.92e6}
{"Gene": "ric8a (GeneID 31874)", "dsRNA": "DRSC18093", "firefly reporter light, replicate 1": 81913, "firefly reporter light, replicate 2": 99941, "Renilla control light, replicate 1": 5.58e5, "Renilla control light, replicate 2": 5.37e5}
{"Gene": "ric8a (GeneID 31874)", "dsRNA": "DRSC24387", "firefly reporter light, replicate 1": 5.52e5, "firefly reporter light, replicate 2": 5.69e5, "Renilla control light, replicate 1": 1.05e6, "Renilla control light, replicate 2": 8.30e5}
{"Gene": "qjt (GeneID 39952)", "dsRNA": "DRSC10060", "firefly reporter light, replicate 1": 1.72e5, "firefly reporter light, replicate 2": 1.68e5, "Renilla control light, replicate 1": 1.10e6, "Renilla control light, replicate 2": 1.93e6}
{"Gene": "qjt (GeneID 39952)", "dsRNA": "DRSC24901", "firefly reporter light, replicate 1": 8.07e5, "firefly reporter light, replicate 2": 8.47e5, "Renilla control light, replicate 1": 9.05e5, "Renilla control light, replicate 2": 9.57e5}
{"Gene": "BHD (GeneID 38793)", "dsRNA": "DRSC11017", "firefly reporter light, replicate 1": 1.55e6, "firefly reporter light, replicate 2": 4.85e5, "Renilla control light, replicate 1": 1.97e6, "Renilla control light, replicate 2": 8.24e5}
{"Gene": "BHD (GeneID 38793)", "dsRNA": "DRSC22833", "firefly reporter light, replicate 1": 4.46e5, "firefly reporter light, replicate 2": 1.17e6, "Renilla control light, replicate 1": 3.74e5, "Renilla control light, replicate 2": 8.58e5}
{"Gene": "BHD (GeneID 38793)", "dsRNA": "DRSC27469", "firefly reporter light, replicate 1": 3.04e5, "firefly reporter light, replicate 2": 4.55e5, "Renilla control light, replicate 1": 6.85e5, "Renilla control light, replicate 2": 8.90e5}

2 of these entries, reformatted:
BHD (GeneID 38793) [DRSC11017] → firefly reporter light, replicate 1 = 1.55e6; firefly reporter light, replicate 2 = 4.85e5; Renilla control light, replicate 1 = 1.97e6; Renilla control light, replicate 2 = 8.24e5
BHD (GeneID 38793) [DRSC22833] → firefly reporter light, replicate 1 = 4.46e5; firefly reporter light, replicate 2 = 1.17e6; Renilla control light, replicate 1 = 3.74e5; Renilla control light, replicate 2 = 8.58e5

Next results follow:
{"Gene": "CG10959 (GeneID 31743)", "dsRNA": "DRSC17769", "firefly reporter light, replicate 1": 1.22e5, "firefly reporter light, replicate 2": 74258, "Renilla control light, replicate 1": 4.45e5, "Renilla control light, replicate 2": 3.02e5}
{"Gene": "CG10959 (GeneID 31743)", "dsRNA": "DRSC29120", "firefly reporter light, replicate 1": 4.33e5, "firefly reporter light, replicate 2": 4.29e5, "Renilla control light, replicate 1": 1.52e6, "Renilla control light, replicate 2": 1.70e6}
{"Gene": "CG10801 (GeneID 31314)", "dsRNA": "DRSC17761", "firefly reporter light, replicate 1": 1.55e5, "firefly reporter light, replicate 2": 1.97e5, "Renilla control light, replicate 1": 2.22e6, "Renilla control light, replicate 2": 2.56e6}
{"Gene": "CG11370 (GeneID 40486)", "dsRNA": "DRSC11653", "firefly reporter light, replicate 1": 3.09e5, "firefly reporter light, replicate 2": 3.11e5, "Renilla control light, replicate 1": 2.59e6, "Renilla control light, replicate 2": 2.46e6}
{"Gene": "CG11370 (GeneID 40486)", "dsRNA": "DRSC28361", "firefly reporter light, replicate 1": 4.69e5, "firefly reporter light, replicate 2": 6.41e5, "Renilla control light, replicate 1": 7.78e5, "Renilla control light, replicate 2": 1.13e6}
